Assay results published in the supplement of paper PMC10849652.
Some of the results follow.

By UniProt entry, the sequences of proteins in these tests, tags left out. Where a name states a change or a piece, a line headed by the entry shows the natural chain unless it says otherwise.
UniProt O75439: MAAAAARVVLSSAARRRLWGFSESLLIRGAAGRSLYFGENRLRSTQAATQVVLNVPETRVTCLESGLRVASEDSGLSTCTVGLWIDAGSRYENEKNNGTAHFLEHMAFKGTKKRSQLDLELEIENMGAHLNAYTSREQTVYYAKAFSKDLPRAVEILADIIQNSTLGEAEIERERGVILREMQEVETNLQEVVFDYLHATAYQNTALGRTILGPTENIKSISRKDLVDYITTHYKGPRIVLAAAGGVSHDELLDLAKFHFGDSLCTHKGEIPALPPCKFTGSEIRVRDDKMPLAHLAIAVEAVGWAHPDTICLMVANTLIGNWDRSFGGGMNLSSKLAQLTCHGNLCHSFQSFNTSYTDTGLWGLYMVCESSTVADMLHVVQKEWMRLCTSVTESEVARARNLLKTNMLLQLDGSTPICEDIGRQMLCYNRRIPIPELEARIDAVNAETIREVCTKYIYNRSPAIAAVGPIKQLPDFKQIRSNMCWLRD
UniProt Q9H8W4: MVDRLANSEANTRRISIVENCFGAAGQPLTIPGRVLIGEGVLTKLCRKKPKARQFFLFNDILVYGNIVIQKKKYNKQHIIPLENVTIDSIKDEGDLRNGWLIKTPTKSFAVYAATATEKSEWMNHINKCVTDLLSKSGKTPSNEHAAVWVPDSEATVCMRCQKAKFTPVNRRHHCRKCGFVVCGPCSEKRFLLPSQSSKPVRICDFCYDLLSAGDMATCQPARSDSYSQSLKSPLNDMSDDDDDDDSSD
UniProt P16435: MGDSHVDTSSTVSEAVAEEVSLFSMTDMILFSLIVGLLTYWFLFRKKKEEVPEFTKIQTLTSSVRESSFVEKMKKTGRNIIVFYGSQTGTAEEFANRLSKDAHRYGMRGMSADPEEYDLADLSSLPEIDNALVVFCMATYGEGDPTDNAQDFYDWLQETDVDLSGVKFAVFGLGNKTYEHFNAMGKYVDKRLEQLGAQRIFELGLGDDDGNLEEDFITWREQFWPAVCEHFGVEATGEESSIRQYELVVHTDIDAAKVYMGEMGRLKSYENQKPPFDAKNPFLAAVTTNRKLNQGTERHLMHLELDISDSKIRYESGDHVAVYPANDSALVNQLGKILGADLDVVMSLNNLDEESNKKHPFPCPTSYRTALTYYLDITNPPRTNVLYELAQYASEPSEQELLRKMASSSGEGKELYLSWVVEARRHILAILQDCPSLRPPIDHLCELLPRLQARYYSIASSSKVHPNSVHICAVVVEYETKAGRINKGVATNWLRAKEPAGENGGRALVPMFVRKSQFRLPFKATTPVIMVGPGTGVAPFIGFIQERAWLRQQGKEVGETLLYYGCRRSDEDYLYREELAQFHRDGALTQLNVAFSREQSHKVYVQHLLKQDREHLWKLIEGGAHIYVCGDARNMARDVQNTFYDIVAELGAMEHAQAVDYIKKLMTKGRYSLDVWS
UniProt P0CAP2, whole entry, looked up: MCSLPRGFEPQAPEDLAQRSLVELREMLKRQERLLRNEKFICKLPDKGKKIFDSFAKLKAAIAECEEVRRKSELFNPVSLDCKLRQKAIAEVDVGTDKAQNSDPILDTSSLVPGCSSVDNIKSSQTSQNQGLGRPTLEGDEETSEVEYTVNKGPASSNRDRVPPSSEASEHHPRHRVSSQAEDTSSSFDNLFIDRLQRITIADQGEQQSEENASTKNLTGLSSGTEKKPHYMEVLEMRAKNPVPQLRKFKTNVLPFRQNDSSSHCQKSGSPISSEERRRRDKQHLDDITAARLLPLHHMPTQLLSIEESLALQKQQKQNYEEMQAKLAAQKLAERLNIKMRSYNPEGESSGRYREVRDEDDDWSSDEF
UniProt Q96AD5: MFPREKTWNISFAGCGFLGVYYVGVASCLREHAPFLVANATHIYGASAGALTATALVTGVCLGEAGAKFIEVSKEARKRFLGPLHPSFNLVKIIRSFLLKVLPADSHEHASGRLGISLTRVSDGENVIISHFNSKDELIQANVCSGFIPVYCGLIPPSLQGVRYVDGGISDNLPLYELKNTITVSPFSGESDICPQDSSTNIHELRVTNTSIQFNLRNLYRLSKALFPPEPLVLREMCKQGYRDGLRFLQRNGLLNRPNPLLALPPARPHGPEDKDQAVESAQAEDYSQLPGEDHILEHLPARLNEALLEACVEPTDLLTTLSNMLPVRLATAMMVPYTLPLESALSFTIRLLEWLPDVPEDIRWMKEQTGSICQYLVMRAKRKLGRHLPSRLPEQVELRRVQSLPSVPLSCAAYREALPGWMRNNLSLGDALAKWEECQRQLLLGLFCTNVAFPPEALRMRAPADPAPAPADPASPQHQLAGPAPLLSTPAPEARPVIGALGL
UniProt O95707: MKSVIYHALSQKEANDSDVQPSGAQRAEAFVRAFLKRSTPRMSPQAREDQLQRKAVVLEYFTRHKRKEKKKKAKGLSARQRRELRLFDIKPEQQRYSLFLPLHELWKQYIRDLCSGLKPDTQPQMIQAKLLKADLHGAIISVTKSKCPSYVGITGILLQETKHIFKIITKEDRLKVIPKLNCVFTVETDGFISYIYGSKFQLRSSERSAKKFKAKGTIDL
UniProt O60664: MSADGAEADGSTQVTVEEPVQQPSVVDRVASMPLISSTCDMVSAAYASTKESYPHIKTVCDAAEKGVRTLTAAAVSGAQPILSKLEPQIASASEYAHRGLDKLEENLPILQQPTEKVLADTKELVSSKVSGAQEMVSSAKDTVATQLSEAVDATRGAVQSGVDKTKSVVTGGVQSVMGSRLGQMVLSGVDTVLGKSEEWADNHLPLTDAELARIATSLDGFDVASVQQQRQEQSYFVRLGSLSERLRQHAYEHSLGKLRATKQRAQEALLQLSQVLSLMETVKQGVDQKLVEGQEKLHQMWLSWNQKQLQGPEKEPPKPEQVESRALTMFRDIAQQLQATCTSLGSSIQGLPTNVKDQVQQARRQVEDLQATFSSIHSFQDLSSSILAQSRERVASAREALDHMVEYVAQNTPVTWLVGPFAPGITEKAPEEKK
UniProt Q8IWE5: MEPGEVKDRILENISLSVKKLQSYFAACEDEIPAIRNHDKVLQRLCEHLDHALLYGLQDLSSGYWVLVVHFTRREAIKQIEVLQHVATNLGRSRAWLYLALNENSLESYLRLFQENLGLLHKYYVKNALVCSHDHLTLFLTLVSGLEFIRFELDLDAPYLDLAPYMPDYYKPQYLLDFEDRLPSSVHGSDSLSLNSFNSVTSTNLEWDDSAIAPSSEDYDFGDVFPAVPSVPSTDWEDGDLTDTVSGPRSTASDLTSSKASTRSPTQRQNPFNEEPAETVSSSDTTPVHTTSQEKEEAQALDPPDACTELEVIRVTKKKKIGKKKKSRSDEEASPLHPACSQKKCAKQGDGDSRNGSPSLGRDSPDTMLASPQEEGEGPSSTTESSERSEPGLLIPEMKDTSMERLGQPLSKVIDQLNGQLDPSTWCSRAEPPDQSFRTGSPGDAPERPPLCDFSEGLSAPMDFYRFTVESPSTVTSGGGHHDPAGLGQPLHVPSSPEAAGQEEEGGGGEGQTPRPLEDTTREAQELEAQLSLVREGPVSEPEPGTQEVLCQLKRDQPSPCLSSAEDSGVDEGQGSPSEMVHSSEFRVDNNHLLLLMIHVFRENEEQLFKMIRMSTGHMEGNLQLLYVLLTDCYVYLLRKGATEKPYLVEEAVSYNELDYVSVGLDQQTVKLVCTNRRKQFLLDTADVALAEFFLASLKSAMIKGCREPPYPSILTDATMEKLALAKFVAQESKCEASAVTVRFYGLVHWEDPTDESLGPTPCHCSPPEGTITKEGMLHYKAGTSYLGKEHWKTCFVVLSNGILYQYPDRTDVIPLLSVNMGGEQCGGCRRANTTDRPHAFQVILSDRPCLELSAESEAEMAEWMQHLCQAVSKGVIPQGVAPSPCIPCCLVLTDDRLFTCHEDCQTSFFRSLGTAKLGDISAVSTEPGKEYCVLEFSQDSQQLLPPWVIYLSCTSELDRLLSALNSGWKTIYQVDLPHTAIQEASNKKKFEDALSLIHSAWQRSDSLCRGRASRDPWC
UniProt P00491: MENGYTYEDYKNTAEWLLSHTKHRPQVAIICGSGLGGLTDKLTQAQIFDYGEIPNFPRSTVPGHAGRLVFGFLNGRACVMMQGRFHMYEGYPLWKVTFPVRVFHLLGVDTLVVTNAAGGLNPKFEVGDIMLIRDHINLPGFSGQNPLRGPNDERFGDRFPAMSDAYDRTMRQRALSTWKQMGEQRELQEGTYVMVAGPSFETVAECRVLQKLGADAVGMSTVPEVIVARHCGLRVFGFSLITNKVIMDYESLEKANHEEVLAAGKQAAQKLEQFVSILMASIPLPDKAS
UniProt Q02809: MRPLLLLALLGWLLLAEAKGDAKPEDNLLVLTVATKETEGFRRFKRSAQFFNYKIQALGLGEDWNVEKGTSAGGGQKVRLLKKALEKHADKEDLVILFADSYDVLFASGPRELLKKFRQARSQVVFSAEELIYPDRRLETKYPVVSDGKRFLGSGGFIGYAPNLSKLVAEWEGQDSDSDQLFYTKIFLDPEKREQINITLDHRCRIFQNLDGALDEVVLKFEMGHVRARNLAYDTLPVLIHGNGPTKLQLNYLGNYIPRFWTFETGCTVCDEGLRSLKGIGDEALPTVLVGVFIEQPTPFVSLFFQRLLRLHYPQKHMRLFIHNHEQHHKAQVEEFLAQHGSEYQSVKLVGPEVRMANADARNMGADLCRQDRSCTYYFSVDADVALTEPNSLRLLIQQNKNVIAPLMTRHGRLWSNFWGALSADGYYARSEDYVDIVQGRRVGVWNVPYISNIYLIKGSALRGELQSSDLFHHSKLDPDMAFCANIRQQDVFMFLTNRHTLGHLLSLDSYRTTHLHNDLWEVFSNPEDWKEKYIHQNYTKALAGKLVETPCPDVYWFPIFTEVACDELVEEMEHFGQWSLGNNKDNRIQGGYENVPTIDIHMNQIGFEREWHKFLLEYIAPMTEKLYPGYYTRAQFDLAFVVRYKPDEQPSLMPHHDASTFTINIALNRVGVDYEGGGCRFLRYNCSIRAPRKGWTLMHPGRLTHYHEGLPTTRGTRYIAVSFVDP
UniProt Q9NP80: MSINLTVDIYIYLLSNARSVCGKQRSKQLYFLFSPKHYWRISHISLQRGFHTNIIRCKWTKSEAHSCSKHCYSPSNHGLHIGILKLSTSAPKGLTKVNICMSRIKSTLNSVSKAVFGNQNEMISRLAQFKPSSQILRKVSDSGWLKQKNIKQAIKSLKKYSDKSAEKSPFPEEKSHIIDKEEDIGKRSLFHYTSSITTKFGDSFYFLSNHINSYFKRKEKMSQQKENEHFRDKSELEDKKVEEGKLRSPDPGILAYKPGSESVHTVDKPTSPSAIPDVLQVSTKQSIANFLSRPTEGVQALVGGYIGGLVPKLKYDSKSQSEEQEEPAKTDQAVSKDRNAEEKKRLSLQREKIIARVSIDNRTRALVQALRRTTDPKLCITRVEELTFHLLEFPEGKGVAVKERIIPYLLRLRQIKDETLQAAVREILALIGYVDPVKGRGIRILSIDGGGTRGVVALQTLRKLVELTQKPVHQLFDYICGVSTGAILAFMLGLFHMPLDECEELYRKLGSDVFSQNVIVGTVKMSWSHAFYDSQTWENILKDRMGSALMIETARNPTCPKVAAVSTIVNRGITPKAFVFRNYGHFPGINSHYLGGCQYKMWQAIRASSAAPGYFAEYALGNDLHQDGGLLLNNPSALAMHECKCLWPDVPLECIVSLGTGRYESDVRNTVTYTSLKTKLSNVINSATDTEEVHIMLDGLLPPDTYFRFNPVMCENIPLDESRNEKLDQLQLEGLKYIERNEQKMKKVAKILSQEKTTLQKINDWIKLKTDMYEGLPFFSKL
UniProt P62937, whole entry, looked up: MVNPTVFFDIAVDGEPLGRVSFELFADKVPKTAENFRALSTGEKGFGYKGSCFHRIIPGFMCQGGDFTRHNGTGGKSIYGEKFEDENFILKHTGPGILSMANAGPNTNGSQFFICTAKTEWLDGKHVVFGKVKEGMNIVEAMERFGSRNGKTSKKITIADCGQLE
UniProt Q8NBL1: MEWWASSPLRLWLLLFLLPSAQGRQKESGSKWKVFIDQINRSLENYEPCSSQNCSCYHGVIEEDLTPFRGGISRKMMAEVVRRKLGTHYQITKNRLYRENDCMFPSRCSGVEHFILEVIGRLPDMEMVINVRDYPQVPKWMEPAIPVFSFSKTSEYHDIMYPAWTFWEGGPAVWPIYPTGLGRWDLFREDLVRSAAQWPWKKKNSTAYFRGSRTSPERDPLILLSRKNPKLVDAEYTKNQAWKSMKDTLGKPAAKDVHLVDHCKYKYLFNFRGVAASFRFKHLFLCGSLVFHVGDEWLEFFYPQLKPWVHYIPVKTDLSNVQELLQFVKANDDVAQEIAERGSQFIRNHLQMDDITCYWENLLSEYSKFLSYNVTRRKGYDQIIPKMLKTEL
UniProt Q9Y535: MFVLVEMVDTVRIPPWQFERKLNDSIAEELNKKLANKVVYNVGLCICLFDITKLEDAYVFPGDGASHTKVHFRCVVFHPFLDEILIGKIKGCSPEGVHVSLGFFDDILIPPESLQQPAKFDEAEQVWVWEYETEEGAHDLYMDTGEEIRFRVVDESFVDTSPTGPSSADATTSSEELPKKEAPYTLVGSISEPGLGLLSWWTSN

Experiments:
Assay in all cases: log2 fold change, soluble protein after heating vs DMSO (PISA); higher = thermal stabilisation; K562 cells, 10 uM, 30 min; active = over 0.2 and 3.5 SD of the protein, either way, in both replicates (recomputed)
[1] = compound: COC1=CC=C(C=C1)CN2C=CC3=C2C=C(C=C3)C(=O)NO
Summary of the method: (§1)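 K562 cells at 2×10^6 cells/mL were treated for 30 min with 10 μM compound, and aliquots were heated for 3 min over 48°C-58°C before pooling. Extraction used PBS with 0.5% NP-40 at 4°C, and soluble protein was the supernatant after 21,000xg for 90 min, measured by TMTpro 16plex LC-MS/MS with channel sums equalised. Thermal stability values, relative to control samples and from duplicates, are log2 fold changes.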

[2] = compound: CON(C)C(=O)N1N=C(c2cc(F)ccc2F)S[C@@]1(CCCN)c1ccccc1 [filanesib]
Summary of the method: as §1

[3] = compound: CO[C@H]1C[C@@H]2CC[C@@H](C)[C@@](O)(O2)C(=O)C(=O)N2CCCC[C@H]2C(=O)O[C@H]([C@H](C)C[C@@H]2CC[C@H](n3cnnn3)[C@H](OC)C2)CC(=O)[C@H](C)/C=C(\C)[C@@H](O)[C@@H](OC)C(=O)[C@H](C)C[C@H](C)/C=C/C=C/C=C/1C [zotarolimus]
Summary of the method: as §1

[4] = compound: COc1cc(C(=O)O)ccc1NC(=O)[C@@H]1N[C@@H](CC(C)(C)C)[C@](C#N)(c2ccc(Cl)cc2F)[C@H]1c1cccc(Cl)c1F [idasanutlin]
Summary of the method: as §1

[5] = compound: COc1cc(Nc2ncc3c(n2)-c2ccc(Cl)cc2C(c2c(F)cccc2OC)=NC3)ccc1C(=O)O [alisertib]
Summary of the method: as §1

[6] = compound: COc1cc2nc(-c3cc(F)ccc3O)nc(N[C@@H]3CNC[C@H]3C(C)(C)O)c2cc1OC
Summary of the method: as §1

[7] = compound: COc1cc2ncnc(Nc3ccc(F)c(Cl)c3)c2cc1OCCCN1CCOCC1 [gefitinib]
Summary of the method: as §1

[8] = compound: COc1cccc2cc(-c3nc([C@H]4CC[C@H](C(=O)O)CC4)n4ncnc(N)c34)[nH]c12
Summary of the method: as §1

[9] = compound: CS(=O)(=O)CCNCc1ccc(-c2ccc3ncnc(Nc4ccc(OCc5cccc(F)c5)c(Cl)c4)c3c2)o1 [lapatinib]
Summary of the method: as §1

[10] = compound: CS(=O)(=O)N1CCN(Cc2cc3nc(-c4cccc5[nH]ncc45)nc(N4CCOCC4)c3s2)CC1 [pictilisib]
Summary of the method: as §1

Measured: log2 fold change

PMPCA (UniProt Q10713)
inactive: [1] -0.041 | [2] 0.013 | [3] 0.035 | [4] -0.1 | [5] -0.089 | [6] -0.02 | [7] 0.043 | [8] 0.009 | [9] -0.023 | [10] 0.018

POLD2 (UniProt P49005)
inactive: [1] 0.005 | [2] -0.071 | [3] 0.03 | [4] -0.08 | [5] 0.098 | [6] 0.01 | [7] 0.012 | [8] 0.022 | [9] 0.024 | [10] 0.118

PMPCB (UniProt O75439)
inactive: [1] -0.046 | [2] 0.036 | [3] 0.047 | [4] -0.122 | [5] -0.078 | [6] 0.046 | [7] 0.006 | [8] 0.008 | [9] -0.054 | [10] -0.012

PLEKHF2 (UniProt Q9H8W4)
inactive: [1] 0.007 | [2] -0.044 | [3] 0.027 | [4] 0.001 | [5] -0.015 | [6] 0.013 | [7] 0 | [8] 0.095 | [9] -0.036 | [10] -0.028

POR (UniProt P16435)
inactive: [1] 0.004 | [2] -0.076 | [3] 0.027 | [4] -0.047 | [5] -0.087 | [6] 0.082 | [7] 0.022 | [8] 0.008 | [9] -0.034 | [10] 0.123

POLR2M (UniProt P0CAP2)
active: [10] -0.254
inactive: [1] -0.025 | [2] -0.004 | [3] -0.05 | [4] -0.022 | [5] -0.015 | [6] 0.094 | [7] -0.08 | [8] 0.054 | [9] -0.044

PPFIA1 (UniProt Q13136)
inactive: [1] -0.168 | [2] 0.101 | [3] 0.211 | [4] 0.049 | [5] -0.057 | [6] 0.048 | [7] -0.082 | [8] -0.076 | [9] 0.024 | [10] 0.037

PNPLA2 (UniProt Q96AD5)
inactive: [1] -0.089 | [2] -0.134 | [3] 0.002 | [4] -0.082 | [5] 0.014 | [6] -0.077 | [7] -0.048 | [8] 0.029 | [9] -0.032 | [10] 0.02

PLS3 (UniProt P13797)
inactive: [1] -0.14 | [2] 0.031 | [3] 0.008 | [4] -0.026 | [5] 0.031 | [6] 0.004 | [7] -0.013 | [8] 0.039 | [9] -0.022 | [10] 0.036

POLE4 (UniProt Q9NR33)
inactive: [1] -0.029 | [2] -0.005 | [3] 0.109 | [4] -0.078 | [5] 0.023 | [6] -0.156 | [7] -0.009 | [8] -0.012 | [9] 0.028 | [10] -0.032

PNISR (UniProt Q8TF01)
inactive: [1] -0.033 | [2] -0.017 | [3] -0.046 | [4] 0.014 | [5] -0.032 | [6] -0.019 | [7] 0.019 | [8] 0.029 | [9] 0.052 | [10] 0.038

POP4 (UniProt O95707)
inactive: [1] -0.058 | [2] -0.005 | [3] 0.083 | [4] -0.048 | [5] -0.057 | [6] 0.124 | [7] -0.017 | [8] 0 | [9] -0.055 | [10] 0.038

PLIN3 (UniProt O60664)
inactive: [1] 0.073 | [2] -0.095 | [3] 0.043 | [4] -0.033 | [5] -0.042 | [6] -0.065 | [7] -0.024 | [8] 0.022 | [9] -0.01 | [10] 0.008

PMM1 (UniProt Q92871)
inactive: [1] -0.084 | [2] 0.021 | [3] -0.003 | [4] 0.022 | [5] -0.039 | [6] 0.124 | [7] 0.16 | [8] 0.022 | [9] -0.02 | [10] -0.17

PPIE (UniProt Q9UNP9)
inactive: [1] -0.076 | [2] -0.023 | [3] -0.032 | [4] 0 | [5] -0.006 | [6] 0.023 | [7] 0.016 | [8] -0.006 | [9] -0.019 | [10] 0.01

POLR1C (UniProt O15160)
inactive: [1] -0.137 | [2] 0.067 | [3] 0.075 | [4] 0.01 | [5] -0.041 | [6] 0.011 | [7] 0.053 | [8] -0.139 | [9] 0.055 | [10] 0.045

PLEKHM2 (UniProt Q8IWE5)
inactive: [1] 0.007 | [2] -0.09 | [3] 0.053 | [4] -0.083 | [5] 0.044 | [6] -0.041 | [7] 0.075 | [8] -0.041 | [9] 0.084 | [10] 0.011

POLR2B (UniProt P30876)
inactive: [1] 0.034 | [2] 0.031 | [3] -0.012 | [4] -0.039 | [5] -0.057 | [6] 0.214 | [7] 0.064 | [8] 0.007 | [9] -0.018 | [10] 0.076

PNP (UniProt P00491)
inactive: [1] -0.033 | [2] -0.016 | [3] -0.018 | [4] -0.026 | [5] -0.046 | [6] 0.005 | [7] 0 | [8] 0.068 | [9] -0.003 | [10] 0.021

PLOD1 isoform 2 (UniProt Q02809)
inactive: [1] -0.072 | [2] 0.126 | [3] 0.034 | [4] 0.082 | [5] -0.125 | [6] 0.019 | [7] 0.01 | [8] -0.097 | [9] 0.107 | [10] -0.037

PNPO (UniProt Q9NVS9)
inactive: [1] 0.029 | [2] -0.055 | [3] 0.002 | [4] -0.004 | [5] -0.034 | [6] -0.024 | [7] -0.02 | [8] 0.003 | [9] -0.069 | [10] -0.073

PNPLA8 (UniProt Q9NP80)
inactive: [1] -0.061 | [2] 0.006 | [3] -0.077 | [4] -0.072 | [5] -0.053 | [6] -0.125 | [7] 0.032 | [8] 0.047 | [9] -0.022 | [10] 0.118

Quoted at random: 2 entries already listed, in no set order.
PLOD1 isoform 2 (UniProt Q02809)
inactive: [1] -0.072 | [2] 0.126 | [3] 0.034 | [4] 0.082 | [5] -0.125 | [6] 0.019 | [7] 0.01 | [8] -0.097 | [9] 0.107 | [10] -0.037

POLR2B (UniProt P30876)
inactive: [1] 0.034 | [2] 0.031 | [3] -0.012 | [4] -0.039 | [5] -0.057 | [6] 0.214 | [7] 0.064 | [8] 0.007 | [9] -0.018 | [10] 0.076

Further entries.

POLR2A (UniProt P24928)
inactive: [1] -0.005 | [2] -0.021 | [3] -0.026 | [4] -0.054 | [5] 0.001 | [7] 0.015 | [8] 0.042 | [9] 0 | [10] 0.05
active: [6] 0.258

PPIA (UniProt P62937)
inactive: [1] 0.021 | [2] -0.035 | [3] 0 | [4] -0.003 | [5] -0.046 | [6] 0.039 | [7] 0.035 | [8] -0.002 | [9] -0.019 | [10] 0.012

POGLUT1 (UniProt Q8NBL1)
inactive: [1] -0.086 | [2] 0.076 | [3] -0.004 | [4] 0.114 | [5] -0.051 | [6] 0.035 | [7] -0.046 | [8] -0.132 | [9] 0.036 | [10] -0.099

PNO1 (UniProt Q9NRX1)
inactive: [1] 0.028 | [2] 0.199 | [3] -0.002 | [4] 0.076 | [5] -0.112 | [6] 0.202 | [7] -0.006 | [8] -0.247 | [9] 0.031 | [10] -0.24

POLR2F (UniProt P61218)
inactive: [1] 0.185 | [2] -0.065 | [3] 0.081 | [4] 0.071 | [5] -0.416 | [6] 0.099 | [7] -0.027 | [8] -0.208 | [9] 0.009 | [10] 0.108

PLS1 (UniProt Q14651)
inactive: [1] 0.012 | [2] 0.01 | [3] 0.036 | [4] -0.053 | [5] -0.025 | [6] 0.017 | [7] 0.02 | [8] -0.005 | [9] 0.024 | [10] 0.023

POTEF (UniProt A5A3E0)
inactive: [1] -0.048 | [2] 0.005 | [3] 0.009 | [4] 0.035 | [5] 0.015 | [6] 0.034 | [7] -0.005 | [8] -0.004 | [9] 0.015 | [10] 0.013

POLR3H (UniProt Q9Y535)
inactive: [1] -0.012 | [2] 0.115 | [3] 0.015 | [4] -0.002 | [5] 0.007 | [6] 0.111 | [7] -0.016 | [8] 0.024 | [9] -0.035 | [10] 0
